Results are given in words; binding and its absence hold for the method and conditions named. Binding seen in cells or lysates may run through a third protein. A yes stands for co-enrichment or nearness to the bait. Other partners may have been found. A no says only that the protein was not detected with the bait. Sequences can lack the tags named with a protein.

By UniProt entry, the sequences of proteins in these tests, tags left out.
UniProt Q9WTX6: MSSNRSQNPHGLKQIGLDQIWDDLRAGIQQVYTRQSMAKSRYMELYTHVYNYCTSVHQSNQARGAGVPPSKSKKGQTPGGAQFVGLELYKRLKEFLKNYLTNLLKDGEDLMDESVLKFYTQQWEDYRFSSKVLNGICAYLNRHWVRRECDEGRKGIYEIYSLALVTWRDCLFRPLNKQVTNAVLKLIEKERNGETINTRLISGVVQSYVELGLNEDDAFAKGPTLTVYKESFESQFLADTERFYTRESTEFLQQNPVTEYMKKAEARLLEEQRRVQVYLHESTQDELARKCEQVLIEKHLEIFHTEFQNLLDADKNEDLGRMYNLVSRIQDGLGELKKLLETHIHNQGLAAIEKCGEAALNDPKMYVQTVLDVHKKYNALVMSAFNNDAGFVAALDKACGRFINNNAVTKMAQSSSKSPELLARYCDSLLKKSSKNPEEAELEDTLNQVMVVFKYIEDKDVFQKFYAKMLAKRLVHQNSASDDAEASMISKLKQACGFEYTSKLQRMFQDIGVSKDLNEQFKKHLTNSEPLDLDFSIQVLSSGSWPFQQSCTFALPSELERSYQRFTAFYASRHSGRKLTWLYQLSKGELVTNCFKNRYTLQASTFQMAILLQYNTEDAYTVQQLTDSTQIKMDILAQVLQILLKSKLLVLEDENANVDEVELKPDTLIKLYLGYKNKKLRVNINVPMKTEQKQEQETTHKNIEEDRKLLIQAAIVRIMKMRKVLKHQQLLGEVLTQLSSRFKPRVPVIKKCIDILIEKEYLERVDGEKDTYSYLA
UniProt P61290: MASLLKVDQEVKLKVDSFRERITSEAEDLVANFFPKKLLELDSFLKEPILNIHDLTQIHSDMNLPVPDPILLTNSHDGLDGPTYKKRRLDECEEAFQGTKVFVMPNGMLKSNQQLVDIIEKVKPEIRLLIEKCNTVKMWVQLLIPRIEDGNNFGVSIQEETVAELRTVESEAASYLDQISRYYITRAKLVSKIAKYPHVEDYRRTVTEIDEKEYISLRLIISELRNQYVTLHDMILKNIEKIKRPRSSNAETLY

The target in this experiment is T1, FS2-FBXL19 (epitope-tagged wild-type FBXL19, stable mouse ES cell line) (mouse) (UniProt Q6PB97).
T1 sequence: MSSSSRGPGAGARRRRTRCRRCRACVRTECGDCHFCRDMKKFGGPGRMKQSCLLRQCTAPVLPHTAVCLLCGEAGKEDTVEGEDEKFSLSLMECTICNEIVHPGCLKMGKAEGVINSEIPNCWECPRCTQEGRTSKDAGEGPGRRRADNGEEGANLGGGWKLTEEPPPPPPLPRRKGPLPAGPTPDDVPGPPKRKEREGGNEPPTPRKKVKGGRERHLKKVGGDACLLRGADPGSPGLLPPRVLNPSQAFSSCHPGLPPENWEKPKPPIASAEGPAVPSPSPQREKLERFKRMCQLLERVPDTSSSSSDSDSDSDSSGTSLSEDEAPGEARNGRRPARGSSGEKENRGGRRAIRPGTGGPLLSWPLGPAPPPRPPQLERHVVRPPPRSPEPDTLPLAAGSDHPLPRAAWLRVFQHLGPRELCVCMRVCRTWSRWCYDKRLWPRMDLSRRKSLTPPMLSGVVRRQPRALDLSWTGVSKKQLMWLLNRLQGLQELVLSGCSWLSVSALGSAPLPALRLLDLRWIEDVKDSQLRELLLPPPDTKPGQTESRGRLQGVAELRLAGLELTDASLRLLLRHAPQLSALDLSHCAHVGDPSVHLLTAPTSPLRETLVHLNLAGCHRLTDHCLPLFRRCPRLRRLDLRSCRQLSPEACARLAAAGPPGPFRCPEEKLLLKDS
The experiment is described as follows: affinity purification with mass spectrometry.

For CUL1 (from UniProt Q9WTX6 1-776), the binding entry is on record as “no binding”.

For the molecule “nuclear proteasome activator PSME3 (from UniProt P61290 1-254)”, the binding entry is recorded as “binds”.

B1: MED26 (protein, UniProt Q7TN02 1-588)
chain: MTAAPASPQQMRDRLLQAIDSQSNIRNMVAVLEVISSLERYPITKEALEETRLGKLINDVRKKTKNEELAKRAKRLLRSWQKLIEPVHQNEVALRALAGAAGSANGGAHNCRPEMGVAGAPKSIHDLKNRNDIQRLPGQRLDRLGSRKRRGDQRDLGHPGPPHKVSKGSPDPLVPNASPLPTNGISGSPESLPSPLDGSGHLGPDGSRLEPSDNEKHSTKIPVNAVRPRPSSPGLGKPPVPCLQTKAAQLQQLDRADESPGPPYPRGSSRCSFSPRNSRHEGSFSRHRSSYIPKGQVSSPSPWPQPPDNTQVPSPLPLAQPPTPPVRRQELLPNAESPVHWPEQSEGHPRLTGPACRAGFSPDSSKADSDATSSGGSDSKKKKRYRPRDYTVNLDGQVAEAGVKPVRLKERKLTFDPMTRQIRPLTQKEPVRADSPVPTEQLPRTELEQQEVKASLQSPFEQTNWKELSRNEIIQSYLSRQSSLLSSSGAQTPGAHHFMAEYLKQEESSRQGARQPHVLLPLPTPTDLPGLTREVTQDDLDRIQAQQWPGVNGCEDTQGNWYDWTQCISLDPHGDDGRLNILPYVCLD
Consider B1, for which the binding entry is listed as “no binding”.
